Reference: US7919462B2, “Inhibitors of human plasmin derived from the Kunitz domains” (Dyax Corp., priority 1994, dated 2011)
“Also recorded” adds a separate entry of the source. Not every detail of the peptide structures is certain; ends, links or a residue may be inferred. Bridges are numbered along the chain shown (N, C = ends). Where no end group is shown, it is not given here.

Sequences of proteins named here, by UniProt entry; tags and fusion partners are left off. Residues count along the entry.
UniProt P00747, 97-580 partner limits assumed: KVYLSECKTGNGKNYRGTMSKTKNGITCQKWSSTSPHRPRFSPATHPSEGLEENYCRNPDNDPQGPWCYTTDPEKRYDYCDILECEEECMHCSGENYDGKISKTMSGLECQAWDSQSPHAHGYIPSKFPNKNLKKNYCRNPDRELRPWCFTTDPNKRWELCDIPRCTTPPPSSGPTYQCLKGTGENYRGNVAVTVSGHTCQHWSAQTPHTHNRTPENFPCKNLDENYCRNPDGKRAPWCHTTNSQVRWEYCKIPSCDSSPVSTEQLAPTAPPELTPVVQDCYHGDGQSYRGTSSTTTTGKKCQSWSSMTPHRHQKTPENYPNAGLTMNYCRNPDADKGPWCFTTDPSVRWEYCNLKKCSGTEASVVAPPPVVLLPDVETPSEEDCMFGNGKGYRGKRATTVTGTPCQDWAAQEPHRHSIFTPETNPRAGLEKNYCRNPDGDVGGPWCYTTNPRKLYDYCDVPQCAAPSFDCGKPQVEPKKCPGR
UniProt P00747, 581-810 limits assumed: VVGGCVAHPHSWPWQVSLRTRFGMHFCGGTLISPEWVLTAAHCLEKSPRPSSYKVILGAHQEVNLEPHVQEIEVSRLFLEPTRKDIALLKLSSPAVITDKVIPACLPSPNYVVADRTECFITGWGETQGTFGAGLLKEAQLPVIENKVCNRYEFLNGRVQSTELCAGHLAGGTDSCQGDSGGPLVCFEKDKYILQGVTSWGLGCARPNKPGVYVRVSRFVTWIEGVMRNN

What was measured:
plasmin [1] = biological target: T1, plasmin (Homo sapiens, UniProt P00747); test: Inhibition of plasmin hydrolysis of succinyl-Ala-Phe-Lys-(F3Ac)AMC, tight-binding fit (Ki used as KD); format: biochemical; settings: for potency class for plasmin below the rank order of Table 8: class words wrapped over r53-r54: Highly Superior / very potent / potent, order SPI11<BPTI<SPI23=SPI51<SPI47<QS4<SPI22<SPI54<SPI43; for plasmin inhibitory activity, potency relative to other proteins: preliminary testing, in words
Description: A second appropriate method of measuring KD is to measure the inhibitory activity against the enzyme. […] Here, we use the measured Ki as a direct measure of KD.
Inhibition of hydrolysis of succinyl-Ala-Phe-Lys-(F3Ac)AMC (a methyl coumarin) (Sigma Chemical, St. Louis, Mo.) by plasmin at 2.5×10^−8 M with varying amount of inhibitor were fit to the standard form for a tight-binding […] by least-squares.

plasmin [2] = biological target: T1, plasmin; test: Binding of display phage (KuDom on M13 gIIIp) to plasmin beads

| Sequence | potency class for plasmin below the rank order of Table 8 (plasmin [1]) | plasmin inhibitory activity, potency relative to other proteins (plasmin [1]) | Phage Binding (plasmin [2]; binding of phage that display the named protein relative to phage that display BPTI) | binding of clonally pure phage compared to BPTI display phage (plasmin [2]; plasmin, in words) |
| --- | --- | --- | --- | --- |
| MHSFCAFKADAGPCRAKFERFFFNIFTRQCEEFIYGGCEGNQNRFESLEECKKMCTRD (disulfide 5-55, 14-38, 30-51) [SPI47] | very | better than QS4; also recorded: less potent than SPI51 but better than QS4 |  |  |
| MHSFCAFKAEGGPCRAKFQRWFFNIFTRQCEEFIYGGCEGNQNRFESLEECKKMCTRD (disulfide 5-55, 14-38, 30-51) [SPI23] | very | only slightly less potent than BPTI | 1.25 X | superior to BPTI phage |
